Among all 330,000 compounds or so, about 7,700 (2.3%) were called active. Inconclusive means that the source gave no clear call. Such entries were picked first, then a sample of the others. The call rests on the fitted dose curve; in most records, active means well fitted inhibition curve with a large enough effect; inconclusive means small, poorly fitted or top-dose-only effect, or effect the other way; inactive means flat fitted curve, though single readings scatter. Potencies of inconclusive entries are doubtful fits and often do not repeat.
Assay: qHTS screen for small molecules that inhibit ELG1-dependent DNA repair in human embryonic kidney (HEK293T) cells expressing luciferase-tagged ELG1; further: nearly all actives have a fitted effect of over 55% in size
Settings: HEK293T ELG1-luciferase reporter, luminescence, 16 h, DNA damage induced by 5-fluorouridine; series mostly up to 46.1 µM
Outline: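 5-Fluorouridine DNA damage + compound/DMSO, 2,000 cells/well, 16 h, 37 °C/5% CO2. ONE-Glo, 30 min RT, luminescence. Readout = decrease in reporter signal.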
Potency means the concentration at half of the fitted maximal effect.

SMILES | Potency
COC(=O)c1ccc(CNC(=O)CNc2cc(C(F)(F)F)ccc2N2CCOCC2)cc1 | inconclusive: 23.1 µM [inhibitor, single point]
COc1cccc(OCC(=O)Nc2ccccc2-c2ccccc2)c1 | inconclusive: 18.3 µM [inhibitor, single point]
CC(C)CC(=O)Nc1c(C(=O)N2CCN(Cc3ccccc3)CC2)oc2ccccc12 | inactive
COc1ccc(/C=N/NC(=O)c2nc(-c3ccccc3)n(-c3ccccc3)n2)c(O)c1 | inactive
Cc1ccc(S(=O)(=O)N2CCC3(CC2)OCCO3)cc1 | inactive
Cc1cccc2nc(COc3ccc(-c4ccccc4)cc3)cn12 | inconclusive: 16.4 µM [activator, partial curve]
CCCNC(=O)C1CC(c2ccc(C(F)(F)F)cc2)=NO1 (configuration not stated) | inconclusive: 25.9 µM [activator, single point]
CC(=O)Nc1ccc2c(c1)CCCC2 | inconclusive: 29.1 µM [activator, single point]
CC(=O)Nc1nc(N(C)C)nc(N(C)C)n1 | inconclusive: 23.1 µM [activator, partial curve]
O=C(Nc1ccc(Cc2ccncc2)cc1)c1ccc(S(=O)(=O)N2CCCC2)cc1 | active: 2.91 µM
Cc1cccc(C(=O)OCC(=O)c2ccc3c(c2)OCO3)c1O | inconclusive: 9.2 µM [activator, partial curve]
CN(C(=O)CC1C(=O)NCCN1Cc1ccc(F)c(F)c1)C1CCCCC1 (configuration not stated) | inactive
C/C(=N\NC(=O)c1ccccc1)c1ccccc1F | inconclusive: 8.2 µM [activator, partial curve]
Cc1csc2c(N3CCN(S(=O)(=O)c4ccc(Cl)cc4)CC3)ncnc12 | inactive
Cc1ccc(C(=O)NCCSCc2ccccc2)cc1[N+](=O)[O-] | inactive
Cc1ccnc(NC(=O)Cn2cc([N+](=O)[O-])cn2)c1 | inconclusive: 23.1 µM [activator, partial curve]
O=C(NN=C1CCCCC1)c1ccccc1-n1cccc1 | inconclusive: 13 µM [activator, partial curve, poor fit]
C/C(=N/N1CCN(c2ccccn2)CC1)c1cccc([N+](=O)[O-])c1 | inactive
COC(=O)c1[nH]c2ccc(F)cc2c1NC(=O)CCN1CCN(Cc2ccc3c(c2)OCO3)CC1 | inactive
O=C(Nc1cccc(-c2ccc(N3CCCCC3)nn2)c1)c1ccco1 | inconclusive: 0.651 µM [activator, partial curve, poor fit]
Cc1ccccc1C(=O)Oc1ccc(Cl)cc1C(=S)N1CCOCC1 | inconclusive: 32.6 µM [inhibitor, partial curve, poor fit]
Cc1ccc(-n2c(C)cc(C(=O)OCC(=O)N3CCOCC3)c2C)cc1 | inactive
Cc1ccc(/C=C/C(=O)c2ccc(N3CCOCC3)cc2)s1 | inconclusive: 16.4 µM [activator, partial curve]
CCOC(=O)Cn1cnc2c(cnn2-c2ccc(Cl)cc2)c1=O | inconclusive: 23.1 µM [activator, partial curve]

SMILES | Potency
Cc1nc(CNC(=O)CC2C(=O)NCCN2Cc2ccoc2)nc2c1CCCC2 (configuration not stated) | inconclusive: 29.1 µM [activator, partial curve, poor fit]
Cc1ccc(N2C(=O)NC(NC(=O)C3CC3)(C(F)(F)F)C2=O)cc1 (configuration not stated) | inconclusive: 16.4 µM [activator, partial curve, poor fit]
C/C(=N\NC(=O)C1CCCC1)c1ccc(Cl)cc1Cl | inconclusive: 9.2 µM [activator, partial curve, poor fit]
Cc1ccccc1-c1nc(P(=O)(c2ccccc2)c2ccccc2)c(N2CCOCC2)o1 | inconclusive: 29.1 µM [inhibitor, partial curve, poor fit]
CNC(=S)N1N=C(c2ccc(C)cc2)CC1c1ccc(OC)c(OC)c1 (configuration not stated) | inactive
CCCC(C)C(=O)Nc1nc(C)c(-c2csc(Nc3cc(OC)ccc3OC)n2)s1 (configuration not stated) | active: 18.4 µM
OCCC1CN(CCCn2cccn2)CCN1C1CCCCC1 (configuration not stated) | inactive
COc1ccccc1CC(=O)N1CCN(c2cccc(Cl)c2)CC1 | inactive
Cc1cc(OCC(=O)OCC(=O)NC2CCCCCC2)ccc1Cl | inactive
CCc1cccc(CC)c1NC(=O)COC(=O)c1ccccc1-c1nc2ccccc2s1 | inconclusive: 32.6 µM [inhibitor, single point]
Cc1cc(C)c(S(=O)(=O)Nc2ccc3[nH]c(=O)[nH]c3c2)c(C)c1 | inconclusive: 16.4 µM [inhibitor, partial curve, poor fit]
COc1cccc(NC(=S)N2CCCC2)c1 | inconclusive: 23.1 µM [activator, single point]
CCSc1nnnn1-c1ccccc1 | inactive
O=C1NCCCCC1NS(=O)(=O)c1cccc(C(F)(F)F)c1 (configuration not stated) | inactive
Cc1ccc(CNC(=O)Cn2cccc2C(=O)c2ccccc2C)cc1 | inconclusive: 14.6 µM [activator, single point]
COC(=O)c1[nH]c2ccc(Cl)cc2c1NC(=O)CCN1CCOCC1 | inactive
C#CC[N+](CC)(CC)CC#Cc1cccc(Cl)c1 | inactive
Cn1c(SCc2ccccc2)nc2ccsc2c1=O | inconclusive: 18.3 µM [inhibitor, single point]
CCCCOc1ccc(NC(=O)C(=O)NCCCn2ccnc2)cc1 | inactive
CCC/C=N/Nc1nnc(Cc2ccc(OC)c(OC)c2)c(=O)[nH]1 | inactive
O=[N+]([O-])c1ccccc1S(=O)(=O)Nc1cccc2cccnc12 | inconclusive: 6.51 µM [inhibitor, single point]
CCOC(=O)c1c(NC(=O)CN2C(=O)NC3(CCC(C)CC3)C2=O)sc(C)c1-c1ccc(C)cc1 (configuration not stated) | inconclusive: 16.4 µM [activator, partial curve, poor fit]
COc1ccc(C(=O)/C=C/Nc2ccc([N+](=O)[O-])cc2)cc1 | inconclusive: 23.1 µM [activator, partial curve, poor fit]
CCOc1ccc(N(Cc2ccc(OC)cc2)C(=O)c2ccco2)cc1 | inconclusive: 16.4 µM [inhibitor, single point]

Reprinted from above, three compounds:
SMILES | Potency
CCSc1nnnn1-c1ccccc1 | inactive
O=C1NCCCCC1NS(=O)(=O)c1cccc(C(F)(F)F)c1 (configuration not stated) | inactive
Cc1ccc(CNC(=O)Cn2cccc2C(=O)c2ccccc2C)cc1 | inconclusive: 14.6 µM [activator, single point]

The list continues:

SMILES | Potency
CC1=NN(c2ccc(Cl)cc2)C(=O)C1 | inconclusive: 29.1 µM [inhibitor, single point]
Cc1ccccc1CSCC(=O)Nc1ccccc1F | inconclusive: 31.6 µM [activator, single point]
COc1ccc(S(=O)(=O)N(CC(=O)Nc2ccc3c(c2)OCO3)c2ccccc2OC)cc1 | inconclusive: 25.9 µM [inhibitor, partial curve, poor fit]
CC(C)Cc1nnc(NC(=O)CCC(=O)Nc2ccccc2F)s1 | inactive
O=C(Nc1ccc(N2CCN(C(=O)c3cccs3)CC2)cc1)c1ccc(F)cc1 | active: 18.3 µM
Cc1cccc(CSc2ncccc2C(=O)O)c1 | inconclusive: 29.1 µM [activator, single point]
COc1ccc(NC(=O)CN(C)CC(=O)Nc2ccc(C)c(S(=O)(=O)N3CCCCC3)c2)cc1 | inconclusive: 18.3 µM [inhibitor, partial curve, poor fit]
CCOC(=O)c1c(N)sc(C(O)(C(F)(F)F)C(F)(F)F)c1-c1ccccc1 | inconclusive: 32.6 µM [activator, partial curve, poor fit]
Cc1ccc(NC(=O)C2CCCN(S(=O)(=O)c3c(C)noc3/C=C/N(C)C)C2)cc1F (configuration not stated) | inconclusive: 29.1 µM [inhibitor, single point]
O=C(CSc1ncnc2c1cnn2-c1ccccc1)NC1CCS(=O)(=O)C1 (configuration not stated) | inactive
CCNc1oc(/C=C/c2ccc(OCC)cc2)nc1C#N | inconclusive: 5.8 µM [inhibitor, partial curve]
C=CCn1c(SCC(=O)NC2CCS(=O)(=O)C2)nnc1-c1ccncc1 (configuration not stated) | inconclusive: 29.1 µM [inhibitor, single point]
Cc1cc(C(=O)Nc2c(C)nn(Cc3ccccc3)c2C)on1 | inactive
CC1CCCN(c2ncnc3c2cnn3-c2ccc(Cl)cc2)C1 (configuration not stated) | inconclusive: 0.103 µM [activator, full curve, poor fit]
O=C(CSc1ccccn1)N/N=C/c1cccc([N+](=O)[O-])c1 | inconclusive: 29.1 µM [activator, partial curve, poor fit]
O=S(=O)(c1ccc(-c2cnc(C3CC3)o2)cc1)N1CCN(c2ccccc2)CC1 | inconclusive: 29.1 µM [activator, single point]
COc1cccc(NC(=O)N2CCc3ccccc3C2)c1 | inconclusive: 20.6 µM [activator, partial curve]
O=C(Nc1ccc([N+](=O)[O-])cc1)C(Cc1ccccc1)N1C(=O)c2cccc3cccc(c23)C1=O (configuration not stated) | inactive
COc1cccc(C(=O)Nc2ccc(N3CCN(S(C)(=O)=O)CC3)cc2)c1 | inconclusive: 8.2 µM [activator, partial curve]
CCSc1nnc2n1C(C)(C)Cc1ccccc1-2 | inactive
CCC1Sc2ccc(S(=O)(=O)CCC(=O)Nc3ccc(OC(F)(F)F)cc3)cc2NC1=O (configuration not stated) | inconclusive: 32.6 µM [inhibitor, partial curve, poor fit]
O=C(O)CN1C(=O)C2C3CC(C2C1=O)C1C(c2ccccc2)c2sc(=O)[nH]c2SC31 (configuration not stated) | inactive
CCCCNC(=O)c1cccc(S(=O)(=O)N2CC3(C)CC2CC(C)(C)C3)c1 (configuration not stated) | inactive
COc1ccccc1N1CCN(C(=O)CSc2ccc3c(C)cc(C)nc3n2)CC1 | inconclusive: 23.1 µM [inhibitor, single point]

From PubChem BioAssay AID504467 (National Center for Advancing Translational Sciences (NCATS), 2011)
